Test results as given in publication PMC9857354.

B1: mRFP-tagged FAM219A WT (protein, UniProt Q8IW50-1 1-185)
chain: MMEEIDRFQVPTAHSEMQPLDPAAASISDGDCDAREGESVAMNYKPSPLQVKLEKQRELARKGSLKNGSMGSPVNQQPKKNNVMARTRLVVPNKGYSSLDQSPDEKPLVALDTDSDDDFDMSRYSSSGYSSAEQINQDLNIQLLKDGYRLDEIPDDEDLDLIPPKSVNPTCMCCQATSSTACHIQ
modifications: prenylated (the paper calls the WT form prenylated)
B2: mRFP-tagged FAM219A C > A (C182A) (protein, UniProt Q8IW50-1 1-185)
chain: MMEEIDRFQVPTAHSEMQPLDPAAASISDGDCDAREGESVAMNYKPSPLQVKLEKQRELARKGSLKNGSMGSPVNQQPKKNNVMARTRLVVPNKGYSSLDQSPDEKPLVALDTDSDDDFDMSRYSSSGYSSAEQINQDLNIQLLKDGYRLDEIPDDEDLDLIPPKSVNPTCMCCQATSSTAAHIQ

Molecular target: eGFP-tagged PDE6D (human)
Assay: co-IP; visible immunoprecipitation (VIP) assay: lysates of HEK293T cells co-transfected with eGFP-PDE6D and mRFP-tagged cargo, anti-GFP or anti-mCherry nanobody beads, 1.5 h at 4 °C, beads imaged; confirmed by western blot

Binder	binding
B1	binds
B2	no binding

These are yes or no findings as the source states them, for the method shown. In cells and extracts the contact can be indirect. Binding can be weak; no strength is given. Tags and fused reporters may be left off the sequences shown.
